# According to PMC9394119:
# T1: GST-tagged Fbxo45 (UniProt P0C2W1)
# T1 sequence: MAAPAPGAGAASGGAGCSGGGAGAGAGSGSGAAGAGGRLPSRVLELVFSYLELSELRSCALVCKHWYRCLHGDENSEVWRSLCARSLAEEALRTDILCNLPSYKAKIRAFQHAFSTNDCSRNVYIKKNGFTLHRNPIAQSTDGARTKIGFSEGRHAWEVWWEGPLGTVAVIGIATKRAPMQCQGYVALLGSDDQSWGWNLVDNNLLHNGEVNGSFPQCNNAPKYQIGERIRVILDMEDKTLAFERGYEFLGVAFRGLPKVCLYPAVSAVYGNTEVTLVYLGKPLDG
# Columns and labels:
# GST-tagged Fbxo45 = target: T1, GST-tagged Fbxo45; assay: pull-down; GST-Fbxo45 purified on glutathione Sepharose 4B, incubated overnight at 4 °C with RIPA buffer II lysates of HEK293T cells expressing Flag-tagged STEP46 or its mutants; immunoblot; only the target purified
# Flag-tagged STEP46 WT = assay: co-IP; HEK293T co-transfected with Flag-tagged STEP46 and HA-tagged Fbxo45 for 48 h; lysis in RIPA buffer II, immunoprecipitated with Flag M2 antibody, immunoblot
# Flag-tagged STEP46 S49E = assay: as above
# Flag-tagged STEP46 S49A = assay: as above
binding (GST-tagged Fbxo45),binding (Flag-tagged STEP46 WT),binding (Flag-tagged STEP46 S49E),binding (Flag-tagged STEP46 S49A),Molecule
binds,–,–,–,Flag-tagged STEP46 S49A
binds weakly,–,–,–,Flag-tagged STEP46 S49E
binds,–,–,–,Flag-tagged STEP46 WT
–,binds,binds weakly,binds,"HA-tagged Fbxo45 WT (protein, UniProt P0C2W1 1-286) MAAPAPGAGAASGGAGCSGGGAGAGAGSGSGAAGAGGRLPSRVLELVFSYLELSELRSCALVCKHWYRCLHGDENSEVWRSLCARSLAEEALRTDILCNLPSYKAKIRAFQHAFSTNDCSRNVYIKKNGFTLHRNPIAQSTDGARTKIGFSEGRHAWEVWWEGPLGTVAVIGIATKRAPMQCQGYVALLGSDDQSWGWNLVDNNLLHNGEVNGSFPQCNNAPKYQIGERIRVILDMEDKTLAFERGYEFLGVAFRGLPKVCLYPAVSAVYGNTEVTLVYLGKPLDG"

# These are yes or no findings as the source states them, for the method shown. In cells and extracts the contact can be indirect. Binding calls can cover weak binding; strength is not graded here. Sequences can lack the tags named with a protein.
